Measurements published in publication PMC10234107.
Results are given in words; binding and its absence hold for the method and conditions named. In cells and extracts the contact can be indirect. Some entries that bind do so weakly or less than the wild type.

Chains of the proteins cited; added tags and fusions are not shown. Residues count along the entry.
UniProt P51668: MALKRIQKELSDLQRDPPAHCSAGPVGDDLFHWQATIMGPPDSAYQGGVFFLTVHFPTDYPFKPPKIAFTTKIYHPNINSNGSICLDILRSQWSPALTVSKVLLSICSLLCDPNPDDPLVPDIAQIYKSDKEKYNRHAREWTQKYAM
UniProt P35968, residues 20-1356: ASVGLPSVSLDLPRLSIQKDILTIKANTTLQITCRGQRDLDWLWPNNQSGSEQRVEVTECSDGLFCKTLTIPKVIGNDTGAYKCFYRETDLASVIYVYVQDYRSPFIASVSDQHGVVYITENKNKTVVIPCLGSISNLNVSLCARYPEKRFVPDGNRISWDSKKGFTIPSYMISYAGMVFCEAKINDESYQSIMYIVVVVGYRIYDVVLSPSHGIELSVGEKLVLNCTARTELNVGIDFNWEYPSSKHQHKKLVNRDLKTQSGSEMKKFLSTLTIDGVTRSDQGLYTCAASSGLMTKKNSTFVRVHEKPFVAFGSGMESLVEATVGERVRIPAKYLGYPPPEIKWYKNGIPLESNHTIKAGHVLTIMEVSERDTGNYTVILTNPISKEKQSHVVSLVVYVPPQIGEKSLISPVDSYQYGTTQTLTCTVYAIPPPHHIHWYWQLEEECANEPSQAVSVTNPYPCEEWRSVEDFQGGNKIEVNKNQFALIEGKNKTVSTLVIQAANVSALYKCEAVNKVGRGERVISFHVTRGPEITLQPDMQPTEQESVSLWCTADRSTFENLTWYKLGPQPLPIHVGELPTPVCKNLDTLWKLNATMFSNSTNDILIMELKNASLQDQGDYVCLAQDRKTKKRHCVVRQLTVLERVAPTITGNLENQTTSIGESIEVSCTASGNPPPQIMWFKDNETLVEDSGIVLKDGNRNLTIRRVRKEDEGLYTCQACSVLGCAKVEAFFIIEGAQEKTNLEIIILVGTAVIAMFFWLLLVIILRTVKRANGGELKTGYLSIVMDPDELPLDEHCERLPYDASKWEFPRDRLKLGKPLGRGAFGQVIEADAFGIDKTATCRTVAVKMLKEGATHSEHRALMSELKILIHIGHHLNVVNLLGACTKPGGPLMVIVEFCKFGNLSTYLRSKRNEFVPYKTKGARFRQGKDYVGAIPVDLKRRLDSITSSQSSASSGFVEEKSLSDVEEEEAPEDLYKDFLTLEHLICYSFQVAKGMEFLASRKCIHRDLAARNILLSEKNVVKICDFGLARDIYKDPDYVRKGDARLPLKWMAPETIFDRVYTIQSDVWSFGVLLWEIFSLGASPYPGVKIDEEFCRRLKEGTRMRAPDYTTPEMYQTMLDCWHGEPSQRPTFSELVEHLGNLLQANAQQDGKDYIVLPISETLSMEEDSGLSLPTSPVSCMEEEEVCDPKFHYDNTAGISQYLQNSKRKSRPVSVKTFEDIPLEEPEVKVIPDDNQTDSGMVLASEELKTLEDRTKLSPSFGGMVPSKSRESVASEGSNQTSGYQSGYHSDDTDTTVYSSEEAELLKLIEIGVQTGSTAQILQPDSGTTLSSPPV

Biological target: UBE2D1 (human (endogenous in HUVEC)) (UniProt P51668)
Test: co-IP; HUVECs with and without VEGF-A; flash crosslinking with 0.4% paraformaldehyde for 1 min; lysis in RIPA buffer plus EDTA; lysate incubated overnight at 4°C with rabbit anti-UBE2D1 or anti-UBE2D2; protein G agarose beads; washed with 0.1x RIPA plus EDTA; immunoblot for VEGFR2 and TfR

binding: binds
Substance: Vascular endothelial growth factor receptor 2 (from UniProt P35968 20-1356)
